# Test results taken from US10525115B2 (Immatics Biotechnologies GmbH, priority 2014, dated 2020).
# Tests used:
# Set-up in all cases: species or system human
# [1] = tested on: BMNC of healthy donors; test: HLA class I ligandome analysis (LC-MS/MS) of healthy donor BMNC; details: HLA class I ligandome, 5 BMNC samples; second figure of the cell
# [2] = tested on: cancer tissues in comparison to non-cancerous tissues and organs; test: Presentation profile / over-presentation by label-free LC-MS (XPRESIDENT), tumor versus normal tissues, other proliferative diseases; details: other proliferative diseases / organs (other than AML) that over- or exclusively present the peptide; Table 5
# [3] = tested on: PBMC of healthy donors; test: HLA class I ligandome analysis (LC-MS/MS) of healthy donor PBMC; details: HLA class I ligandome, 30 PBMC samples; first figure of the cell
# [4] = tested on: primary AML samples; test: HLA class I ligandome analysis (W6/32 immunoaffinity purification, LC-MS/MS) of primary AML samples; details: HLA class I ligandome, 15 AML samples
Substance,Number of positive healthy donors (BMNC) [1],Proliferative disease and location thereof [2],Number of positive healthy donors (PBMC) [3],Number of positive AMLs [4]
428 (SAMGSATRY; listed as Homo sapiens) [compound 428],0/0,"pancreas, adenocarcinoma, breast, carcinoma",0/0,1
329 (HQLSLRTV; listed as Homo sapiens) [compound 329],0,"stomach, adenocarcinoma, colon, non-Hodgkin's; lymphoma",2,0
359 (ESITDVLVR; listed as Homo sapiens) [compound 359],0,"pancreas, adenocarcinoma, stomach, adenocarcinoma",3,2
424 (VLGPTAMRK; listed as Homo sapiens) [compound 424],1,"spleen, chronic myeloid leukemia",0,0
417 (NPRWDGERL; listed as Homo sapiens) [compound 417],0/0,"spleen, chronic myeloid leukemia",0/0,1
390 (KEIDKNDHL; listed as Homo sapiens) [compound 390],0,"lymph node, carcinoma of breast",1,0
439 (ELTLGEFLK; listed as Homo sapiens) [compound 439],0,"stomach, metastatic, ovary, Mullerian mixed; tumor",2,2
382 (SENVKLFSA; listed as Homo sapiens) [compound 382],0,"colon or rectum, prostate, benign nodular; hyperplasia",1,0
372 (FEEHNSMNEL; listed as Homo sapiens) [compound 372],0,"colon or rectum, rectum, adenocarcinoma",1,1
383 (VQKLQNII; listed as Homo sapiens) [compound 383],0,"colon or rectum, prostate, benign nodular; hyperplasia",1,0
386 (QRNMTKLQL; listed as Homo sapiens) [compound 386],0,"omentum, adenocarcinoma",1,0
431 (GQFSKPFSF; listed as Homo sapiens) [compound 431],0,"stomach, metastatic, ovary, granulosa cell tumor",1,0
344 (SRHPLSPGF; listed as Homo sapiens) [compound 344],0/0,"lung, non-small cell lung carcinoma, schwannoma",0/0,1
376 (RPPSPALASV; listed as Homo sapiens) [compound 376],1,"spleen, extramedullary hematopoiesis",0,0
332 (SIRDTPAKNAQK; listed as Homo sapiens) [compound 332],0,"stomach, adenocarcinoma, lymph node, non- Hodgkin's lymphoma",1,1
343 (RPSAASIDL; listed as Homo sapiens) [compound 343],1,"lung, non-small cell lung carcinoma, schwannoma",0,1
427 (LPIAFKVV; listed as Homo sapiens) [compound 427],0,"pancreas, adenocarcinoma, breast, carcinoma",1,1
345 (TPRSPQPEL; listed as Homo sapiens) [compound 345],1,"lung, non-small cell lung carcinoma, schwannoma",0,1

Substance,Number of positive healthy donors (BMNC) [1],Proliferative disease and location thereof [2],Number of positive healthy donors (PBMC) [3],Number of positive AMLs [4]
412 (FSMQQRQAL; listed as Homo sapiens) [compound 412],0/0,"spleen, chronic myeloid leukemia",0/0,1
438 (LSEADVRA; listed as Homo sapiens) [compound 438],0/0,"stomach, adenocarcinoma, lung, adenocarcinoma",0/0,1
394 (RSDMLKDII; listed as Homo sapiens) [compound 394],0/0,"lymph node, carcinoma of breast",0/0,1
351 (DPFIIIHSI; listed as Homo sapiens) [compound 351],0,"colon or rectum, uterine cervix, squamous cell carcinoma",5,2
347 (HTPHPAASR; listed as Homo sapiens) [compound 347],0,"kidney, clear cell renal cell carcinoma, thyroid; gland, nodular hyperplasia",1,0
370 (ATQTPVSNK; listed as Homo sapiens) [compound 370],1,"colon or rectum, rectum, adenocarcinoma",0,1
391 (KVSKASGVSK; listed as Homo sapiens) [compound 391],0,"lymph node, carcinoma of breast",2,1
395 (SESGAGLTRF; listed as Homo sapiens) [compound 395],0/0,"lymph node, carcinoma of breast",0/0,1
422 (SEEPLARNL; listed as Homo sapiens) [compound 422],0/0,"spleen, chronic myeloid leukemia",0/0,1
356 (KLLEYIEEI; listed as Homo sapiens) [compound 356],0/0,"stomach, adenocarcinoma, rectum, adenocarcinoma",0/0,1
326 (DENEHQLSL; listed as Homo sapiens) [compound 326],0,"stomach, adenocarcinoma, colon, non-Hodgkin's; lymphoma",1,3
381 (KLDNQVSKV; listed as Homo sapiens) [compound 381],0,"colon or rectum, prostate, benign nodular; hyperplasia",6,0
331 (SIRDTPAKN; listed as Homo sapiens) [compound 331],0/0,"stomach, adenocarcinoma, lymph node, non- Hodgkin's lymphoma",0/0,1
429 (AEKQGHQW; listed as Homo sapiens) [compound 429],0,"stomach, metastatic, ovary, granulosa cell tumor",1,0
441 (LTLGEFLK; listed as Homo sapiens) [compound 441],0,"stomach, metastatic, ovary, Mullerian mixed; tumor",1,1
388 (EAAAEAKAR; listed as Homo sapiens) [compound 388],0,"lymph node, carcinoma of breast",1,1
423 (TIRNQINAL; listed as Homo sapiens) [compound 423],0/0,"spleen, chronic myeloid leukemia",0/0,1
375 (AEIVGGHEA; listed as Homo sapiens) [compound 375],2/2,"spleen, extramedullary hematopoiesis",2/2,1
